The results in this text go back to publication PMC7668184.

Experiment [1] has as its target N-terminal MalE-tagged SgmX (MalE-SgmX^D2-L1060) (Myxococcus xanthus). Briefly: pull-down; MalE or MalE-SgmX fusions preimmobilised on amylose resin; purified MglA-His6 preincubated with GTP loaded; flow-through, washes and elution on SDS-PAGE, Coomassie blue staining; both purified.
Experiment [2] concerns the target MalE-TPR12-14 (MalE-SgmX^A813-L1060) (Myxococcus xanthus). Described as above.
Experiment [3] deals with MalE-SgmX^ΔTPR12-14 (MalE-SgmX^D2-D853) (Myxococcus xanthus). Described as above.
The target of experiment [4] is N-terminal MalE-tagged SgmX (MalE-SgmX^D2-L1060) (Myxococcus xanthus). The experiment is described as follows: pull-down; MalE or MalE-SgmX fusions preimmobilised on amylose resin; purified MglA-His6 preincubated with GDP loaded; flow-through, washes and elution on SDS-PAGE, Coomassie blue staining; both purified.
Experiment [5] addresses MalE-TPR12-14 (MalE-SgmX^A813-L1060) (Myxococcus xanthus). Described as above.
Experiment [6] has as its target MalE-SgmX^ΔTPR12-14 (MalE-SgmX^D2-D853) (Myxococcus xanthus). Described as above.

No constants are given. Whether binding was seen depends on the method and setting. For part of these data: Binding can be weak; no strength is given. Sequences can lack the tags named with a protein.

B1: C-terminal His6-tagged MglA (MglA-His6) (protein, UniProt Q1DB04 1-195)
chain: MSFINYSSREINCKIVYYGPGLCGKTTNLQYIYNKTAAETKGKLISLSTETDRTLFFDFLPLSLGEIRGFKTRFHLYTVPGQVFYDASRKLILKGVDGVVFVADSQIERMEANMESLENLRINLAEQGYDLNKIPYVIQYNKRDLPNAVTVEEMRKALNHRNIPEYQAVAPTGVGVFDTLKAVAKLVLTELKKGG
For the molecule B1, the binding entry is recorded as “binds” in experiment [1]; “binds” in experiment [2]; “no binding” in experiment [3]; “no binding (only MglA preincubated with GDP)” in experiment [4]; “no binding (only MglA preincubated with GDP)” in experiment [5]; “no binding” in experiment [6].
